{"source": "PubChem BioAssay AID1259308 (NCATS, 2017)", "test": "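Genes whose loss raises luciferase production in HEK293 cells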 (primary screen)", "system": "human HEK293 embryonic kidney cells stably expressing firefly luciferase (HEK-CMV-Luc2-Hygro)", "reagents": "single siRNA against human genes, 0.8 pmol siRNA per well", "time to read-out": "72 h", "measurement": "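Luciferase light (ONE-Glo) measured on one replicate plate set and viability (CellTiter-Glo) on the other, scaled to a negative control siRNA, with robust z-scores and luciferase per cell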", "scale": "total luciferase, z-score: higher = more reporter protein produced", "active means": "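An siRNA counts as active if its total luciferase robust z-score exceeds 3; genes with two or more such siRNAs out of three were retested with fresh siRNAs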", "meaning of the calls": "active = raised luciferase; inactive = no rise", "note": "This is a random part of about 59,000 deposited reagents. In the full data, about 1,510 (2.6%) are marked active. 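Calls use total luciferase alone and ignore viability, so some active siRNAs may act by altering cell number.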 Reagents against one gene are numbered here. Further read-outs or replicates are left out here."}
{"target gene": "AKT2", "siRNA no.": 1, "total luciferase, z-score": 0.779, "call": "inactive"}
{"target gene": "AKT2", "siRNA no.": 2, "total luciferase, z-score": -0.856, "call": "inactive"}
{"target gene": "AKT2", "siRNA no.": 3, "total luciferase, z-score": 0.235, "call": "inactive"}
{"target gene": "CPPED1", "siRNA no.": 1, "total luciferase, z-score": -0.0989, "call": "inactive"}
{"target gene": "CPPED1", "siRNA no.": 2, "total luciferase, z-score": -0.928, "call": "inactive"}
{"target gene": "CPPED1", "siRNA no.": 3, "total luciferase, z-score": 0.62, "call": "inactive"}
{"target gene": "LILRA3", "siRNA no.": 1, "total luciferase, z-score": -1.16, "call": "inactive"}
{"target gene": "LILRA3", "siRNA no.": 2, "total luciferase, z-score": 0.295, "call": "inactive"}
{"target gene": "LILRA3", "siRNA no.": 3, "total luciferase, z-score": 0.509, "call": "inactive"}
{"target gene": "BBS12", "siRNA no.": 1, "total luciferase, z-score": 2.25, "call": "inactive"}
{"target gene": "BBS12", "siRNA no.": 2, "total luciferase, z-score": -0.708, "call": "inactive"}
{"target gene": "BBS12", "siRNA no.": 3, "total luciferase, z-score": 0.599, "call": "inactive"}

5 entries from above, ordered by “total luciferase, z-score”, highest first:
{"target gene": "BBS12", "siRNA no.": 1, "total luciferase, z-score": 2.25, "call": "inactive"}
{"target gene": "LILRA3", "siRNA no.": 3, "total luciferase, z-score": 0.509, "call": "inactive"}
{"target gene": "LILRA3", "siRNA no.": 2, "total luciferase, z-score": 0.295, "call": "inactive"}
{"target gene": "BBS12", "siRNA no.": 2, "total luciferase, z-score": -0.708, "call": "inactive"}
{"target gene": "LILRA3", "siRNA no.": 1, "total luciferase, z-score": -1.16, "call": "inactive"}

Further results follow:
{"target gene": "MED22", "siRNA no.": 1, "total luciferase, z-score": -0.441, "call": "inactive"}
{"target gene": "MED22", "siRNA no.": 2, "total luciferase, z-score": -0.502, "call": "inactive"}
{"target gene": "MED22", "siRNA no.": 3, "total luciferase, z-score": 0.916, "call": "inactive"}
{"target gene": "LOC100420746", "siRNA no.": 1, "total luciferase, z-score": 1.27, "call": "inactive"}
{"target gene": "LOC100420746", "siRNA no.": 2, "total luciferase, z-score": -0.915, "call": "inactive"}
{"target gene": "LOC100420746", "siRNA no.": 3, "total luciferase, z-score": -0.0352, "call": "inactive"}
{"target gene": "HCCS", "siRNA no.": 1, "total luciferase, z-score": -0.172, "call": "inactive"}
{"target gene": "HCCS", "siRNA no.": 2, "total luciferase, z-score": -1.13, "call": "inactive"}
{"target gene": "HCCS", "siRNA no.": 3, "total luciferase, z-score": -0.715, "call": "inactive"}
{"target gene": "TCEA2", "siRNA no.": 1, "total luciferase, z-score": -0.508, "call": "inactive"}
{"target gene": "TCEA2", "siRNA no.": 2, "total luciferase, z-score": -1.21, "call": "inactive"}
{"target gene": "TCEA2", "siRNA no.": 3, "total luciferase, z-score": -0.63, "call": "inactive"}
{"target gene": "ZNF579", "siRNA no.": 1, "total luciferase, z-score": -1.24, "call": "inactive"}
{"target gene": "ZNF579", "siRNA no.": 2, "total luciferase, z-score": 0.355, "call": "inactive"}
{"target gene": "ZNF579", "siRNA no.": 3, "total luciferase, z-score": -0.573, "call": "inactive"}
{"target gene": "SETD1B", "siRNA no.": 1, "total luciferase, z-score": -0.293, "call": "inactive"}
{"target gene": "SETD1B", "siRNA no.": 2, "total luciferase, z-score": -1.53, "call": "inactive"}
{"target gene": "SETD1B", "siRNA no.": 3, "total luciferase, z-score": -0.769, "call": "inactive"}
{"target gene": "ALPG", "siRNA no.": 1, "total luciferase, z-score": 0.776, "call": "inactive"}
{"target gene": "ALPG", "siRNA no.": 2, "total luciferase, z-score": -0.122, "call": "inactive"}
{"target gene": "ALPG", "siRNA no.": 3, "total luciferase, z-score": -1.19, "call": "inactive"}
